Experimental findings from patent US20230071019A1 are described below.

No constants are given. Whether binding was seen depends on the method and setting. Binding calls can cover weak binding; strength is not graded here.

This assay deals with BSA-calicheamicin (bovine). Put plainly: ELISA, peptide phage. In general terms: An ELISA detects its analyte on a solid surface through an enzyme-linked reagent.

Turning to SWWFPQWMAQYPGGGS [Anti-Calicheamicin peptide C9], the binding entry was “binds”.
The entry for HSWHWPSWWAGGGGGS [Anti-Calicheamicin peptide C2] is “binds”.
